Reference: PubChem BioAssay AID1259424 (University of Nebraska Medical Center, 2018)
In all, the deposit lists about 14,000 reagents; below is a random part of them. 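Higher correlation or smaller distance means closer resemblance to KSR1 loss; control wells, including KSR1 knockdowns, recur on many plates.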 Not all columns of the deposit are shown. The record does not give: the time to read-out.

Purpose: 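Rank knockdowns across the genome by resemblance to the KSR1 depletion profile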 (primary screen)
Cell system: human HCT116 colon cancer cells
Knock-down reagent: siRNA pool against human genes, 50 nM
Read-out: 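Six signature mRNAs by branched-DNA multiplex assay, scaled to two housekeeping genes and non-targeting median, log2; matched to mean KSR1 knockdown profile by Pearson correlation and euclidean distance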
Scale: mean correlation with KSR1 profile: higher = expression change more like KSR1 knockdown; mean distance from KSR1 profile: higher = expression change less like KSR1 knockdown

{"Gene": "TNIK", "mean correlation with KSR1 profile": 0.547, "mean distance from KSR1 profile": 1.84}
{"Gene": "HIF1AN", "mean correlation with KSR1 profile": 0.165, "mean distance from KSR1 profile": 2.76}
{"Gene": "IMPG2", "mean correlation with KSR1 profile": 0.0829, "mean distance from KSR1 profile": 1.37}
{"Gene": "SSBP1", "mean correlation with KSR1 profile": 0.72, "mean distance from KSR1 profile": 0.754}
{"Gene": "GALNT2", "mean correlation with KSR1 profile": -0.415, "mean distance from KSR1 profile": 2.16}
{"Gene": "PTCD1", "mean correlation with KSR1 profile": 0.0109, "mean distance from KSR1 profile": 1.31}
{"Gene": "CASQ1", "mean correlation with KSR1 profile": -0.471, "mean distance from KSR1 profile": 3.31}
{"Gene": "RPL30", "mean correlation with KSR1 profile": 0.519, "mean distance from KSR1 profile": 1.95}
{"Gene": "IRAK3", "mean correlation with KSR1 profile": 0.409, "mean distance from KSR1 profile": 2.09}
{"Gene": "RBFA", "mean correlation with KSR1 profile": 0.519, "mean distance from KSR1 profile": 3.11}
{"Gene": "SPIB", "mean correlation with KSR1 profile": 0.218, "mean distance from KSR1 profile": 2.7}
{"Gene": "SRRM2", "mean correlation with KSR1 profile": 0.441, "mean distance from KSR1 profile": 1.57}
{"Gene": "NR5A2", "mean correlation with KSR1 profile": 0.447, "mean distance from KSR1 profile": 3.26}
{"Gene": "MS4A8", "mean correlation with KSR1 profile": -0.0469, "mean distance from KSR1 profile": 1.3}
{"Gene": "ATP2A1", "mean correlation with KSR1 profile": -0.171, "mean distance from KSR1 profile": 2.46}
{"Gene": "LZTFL1", "mean correlation with KSR1 profile": -0.273, "mean distance from KSR1 profile": 1.48}
{"Gene": "PCDHGB1", "mean correlation with KSR1 profile": -0.129, "mean distance from KSR1 profile": 2.81}
{"Gene": "TNRC18", "mean correlation with KSR1 profile": -0.771, "mean distance from KSR1 profile": 3.85}
{"Gene": "DOLK", "mean correlation with KSR1 profile": -0.144, "mean distance from KSR1 profile": 2.91}
{"Gene": "SP1", "mean correlation with KSR1 profile": 0.0453, "mean distance from KSR1 profile": 2.13}
{"Gene": "HLA-DQB2", "mean correlation with KSR1 profile": 0.628, "mean distance from KSR1 profile": 1.2}
{"Gene": "CLINT1", "mean correlation with KSR1 profile": -0.613, "mean distance from KSR1 profile": 4.45}
{"Gene": "P3H4", "mean correlation with KSR1 profile": -0.0611, "mean distance from KSR1 profile": 1.75}

2 of these entries in another layout.
SPIB
- mean correlation with KSR1 profile: 0.218
- mean distance from KSR1 profile: 2.7

SRRM2
- mean correlation with KSR1 profile: 0.441
- mean distance from KSR1 profile: 1.57

Additional reagents follow:
{"Gene": "HBG1", "mean correlation with KSR1 profile": 0.47, "mean distance from KSR1 profile": 0.913}
{"Gene": "GP2", "mean correlation with KSR1 profile": 0.782, "mean distance from KSR1 profile": 1.81}
{"Gene": "SIVA1", "mean correlation with KSR1 profile": 0.586, "mean distance from KSR1 profile": 3.75}
{"Gene": "RNASE3", "mean correlation with KSR1 profile": -0.141, "mean distance from KSR1 profile": 2.36}
{"Gene": "UTP18", "mean correlation with KSR1 profile": -0.335, "mean distance from KSR1 profile": 4.19}
{"Gene": "DDX50", "mean correlation with KSR1 profile": -0.484, "mean distance from KSR1 profile": 2.76}
{"Gene": "LRFN3", "mean correlation with KSR1 profile": 0.485, "mean distance from KSR1 profile": 1.32}
{"Gene": "PTPN4", "mean correlation with KSR1 profile": 0.866, "mean distance from KSR1 profile": 0.46}
{"Gene": "CD300LF", "mean correlation with KSR1 profile": -0.476, "mean distance from KSR1 profile": 2.68}
{"Gene": "SLC30A10", "mean correlation with KSR1 profile": 0.116, "mean distance from KSR1 profile": 1.19}
{"Gene": "CORO1C", "mean correlation with KSR1 profile": -0.283, "mean distance from KSR1 profile": 4.33}
{"Gene": "CD244", "mean correlation with KSR1 profile": 0.331, "mean distance from KSR1 profile": 1.82}
{"Gene": "CCL14", "mean correlation with KSR1 profile": -0.0936, "mean distance from KSR1 profile": 1.37}
